Data as given in PubChem BioAssay AID743454 (Peter MacCallum Cancer Centre, 2014)
Shown is an unselected part of about 18,000 reagents. 450 of them (2.5%) count as active. 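Single biological run; no consistent viability z cut-off exists, so the class columns, not z-scores, define the calls.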 Entries without a mark were called inactive. No sequences are given here.

- Purpose: 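Search for knock-downs that restore vorinostat killing in resistant colon cancer cells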 (primary screen)
- Cells: human HCT116-VR colon cancer cells, selected for vorinostat resistance
- Reagent: siRNA pool against human genes, 40 nM siRNA pool
- Duration: vorinostat for 24 h, read-out about 72 h after transfection
- Challenge: vorinostat at 2.5 µM final
- Read-out: 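Two measures, CellTiter-Fluor viability and luminescent caspase 3/7 activity, each as fold change against same-plate mock wells, mean of duplicates, then screen-wide robust z-score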
- Scale: viability robust z-score: higher = more viable cells than screen typical; caspase robust z-score: higher = more caspase 3/7 activity than screen typical
- Active means: 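a knock-down is a hit when classed RV1 or RV2 for lowered viability, or CA1 or CA2 for caspase activation; those lethal without drug were dropped; hits were retested singly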

gene,viability hit class,caspase hit class,viability robust z-score,caspase robust z-score
SV2A (synaptic vesicle glycoprotein 2A),no change,no change,0.48,-0.95
ZNF101 (zinc finger protein 101),no change,no change,0.01,-0.87
OR10G9 (olfactory receptor family 10 subfamily G member 9),no change,no change,0.68,0.26
TBC1D24 (TBC1 domain family member 24),no change,no change,-1.23,4.46
SPATS2 (spermatogenesis associated serine rich 2),no change,no change,1.44,-0.45
HFM1 (helicase for meiosis 1),no change,no change,0.62,-0.68
DEFA6 (defensin alpha 6),no change,no change,0.42,-0.58
RERE (arginine-glutamic acid dipeptide repeats),no change (active),CA2 (caspase activation),-0.16,7.68
BEST2 (bestrophin 2),no change,no change,1.67,-0.38
WDR86 (WD repeat domain 86),no change,no change,1.4,-0.4
"SEC11A (SEC11 homolog A, signal peptidase complex subunit)",no change,no change,0.32,-0.2
DMRTC2 (DMRT like family C2),no change,no change,0.04,0.82
UHMK1 (U2AF homology motif kinase 1),no change,no change,-0.16,-0.43
HSPA1A (heat shock protein family A (Hsp70) member 1A),no change,no change,0.48,2.24
WBP1 (WW domain binding protein 1),no change,no change,-0.48,2.08
MX2 (MX dynamin like GTPase 2),no change,no change,-3.04,1.46
SGO1 (shugoshin 1),no change,no change,-1.1,3.62
LIFR (LIF receptor subunit alpha),no change,no change,0.29,-0.77
ZNF280D (zinc finger protein 280D),no change,no change,-0.14,-0.74
ANKAR (ankyrin and armadillo repeat containing),no change,no change,0.29,0.32
TMCO2 (transmembrane and coiled-coil domains 2),no change,no change,0.14,-0.78
TPRG1 (tumor protein p63 regulated 1),no change,no change,0.4,-0.75
"ALG11 (ALG11 alpha-1,2-mannosyltransferase)",no change,no change,0.38,0.26

Sorted by “viability robust z-score” (low to high): 4 of the entries above
gene,viability hit class,caspase hit class,viability robust z-score,caspase robust z-score
MX2 (MX dynamin like GTPase 2),no change,no change,-3.04,1.46
WBP1 (WW domain binding protein 1),no change,no change,-0.48,2.08
UHMK1 (U2AF homology motif kinase 1),no change,no change,-0.16,-0.43
HSPA1A (heat shock protein family A (Hsp70) member 1A),no change,no change,0.48,2.24
